Where two headings read alike, the source gives them in different places. No constants are given. Whether binding was seen depends on the method and setting. In cells and extracts the contact can be indirect. Binding calls can cover weak binding; strength is not graded here. Sequences can lack the tags named with a protein.
Experiments:
[1] = target: T1, FLAG-SLC25A5 (mitochondrial ADP/ATP translocase) (UniProt P05141); test: co-IP
T1 sequence: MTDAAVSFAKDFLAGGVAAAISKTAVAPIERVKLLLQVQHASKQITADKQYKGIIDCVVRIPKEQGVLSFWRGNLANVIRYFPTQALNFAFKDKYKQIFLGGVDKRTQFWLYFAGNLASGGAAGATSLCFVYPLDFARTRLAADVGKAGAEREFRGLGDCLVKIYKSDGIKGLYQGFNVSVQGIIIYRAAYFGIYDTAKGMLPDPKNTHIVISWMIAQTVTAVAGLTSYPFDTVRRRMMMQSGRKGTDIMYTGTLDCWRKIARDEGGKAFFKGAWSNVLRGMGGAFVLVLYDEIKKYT

[2] = target: T1, FLAG-SLC25A5 (mitochondrial ADP/ATP translocase); test: co-IP; remark: listed apart in the source

GFP-tagged PE18 (BCG effector PE18, encoded by BCG_1820) (Mycobacterium bovis BCG)
binding [1]: binds | binding [2]: binds

Source: paper doi:10.1101/2025.11.09.687409
